For the assay, the target named is endogenous Akt (UniProt P31749). Briefly: co-immunoprecipitation from 293T cells, in both directions (anti-HA and Akt agarose), Western blot.

Amino acid sequences for entries named in this document (tags omitted).
UniProt P31749: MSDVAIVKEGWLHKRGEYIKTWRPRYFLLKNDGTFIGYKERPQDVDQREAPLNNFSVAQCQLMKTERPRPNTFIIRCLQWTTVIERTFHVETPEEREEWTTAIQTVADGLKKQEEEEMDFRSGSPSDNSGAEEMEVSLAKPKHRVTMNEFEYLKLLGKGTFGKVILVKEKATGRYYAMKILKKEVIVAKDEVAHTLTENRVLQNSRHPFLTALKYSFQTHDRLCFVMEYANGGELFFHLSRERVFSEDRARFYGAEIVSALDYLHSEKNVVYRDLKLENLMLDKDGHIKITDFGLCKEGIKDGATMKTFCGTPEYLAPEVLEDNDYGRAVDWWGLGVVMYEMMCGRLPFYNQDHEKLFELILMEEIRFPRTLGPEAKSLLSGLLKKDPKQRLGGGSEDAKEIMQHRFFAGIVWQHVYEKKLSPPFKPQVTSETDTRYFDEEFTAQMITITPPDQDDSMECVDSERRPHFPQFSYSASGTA

These are yes or no findings as the source states them, for the method shown. Binding seen in cells or lysates may run through a third protein. Some entries that bind do so weakly or less than the wild type. Where a sequence is shown, tags or fusion partners need not be part of it.

B1: HA-tagged full length PHLPP2 (enzyme)
chain: MGYPYDVPDYAMKRNGSRNCLNRRSRFGSRERDWLREDVKRGCVYLYGADTTTATTTTTTSSSSSSSSSSSDLHLVLCTVETPASEICAGEGRESLYLQLHGDLVRRLEPTERPLQIVYDYLSRLGFDDPVRIQEEATNPDLGCMIRFYGEKPCHMDRLDRILLSGIYNVRKGKTQLHKWAERLVVLCGTCLIVSSVKDCQTGKMHILPLVGGKIEEVKRRQYSLAFSSAGAQAQTYHVSFETLAEYQRWQRQASKVVSQRISTVDLSCYSLEEVPEHLFYSQDITYLNLRHNFMQLERPGGLDTLYKFSQLKGLNLSHNKLGLFPILLCEISTLTELNLSCNGFHDLPSQIGNLLNLQTLCLDGNFLTTLPEELGNLQQLSSLGISFNNFSQIPEVYEKLTMLDRVVMAGNCLEVLNLGVLNRMNHIKHVDLRMNHLKTMVIENLEGNKHITHVDLRDNRLTDLDLSSLCSLEQLHCGRNQLRELTLSGFSLRTLYASSNRLTAVNVYPVPSLLTFLDLSRNLLECVPDWACEAKKIEVLDVSYNLLTEVPVRILSSLSLRKLMLGHNHVQNLPTLVEHIPLEVLDLQHNALTRLPDTLFSKALNLRYLNASANSLESLPSACTGEESLSMLQLLYLTNNLLTDQCIPVLVGHLHLRILHLANNQLQTFPASKLNKLEQLEELNLSGNKLKTIPTTIANCKRLHTLVAHSNNISIFPEILQLPQIQFVDLSCNDLTEILIPEALPATLQDLDLTGNTNLVLEHKTLDIFSHITTLKIDQKPLPTTDSTVTSTFWSHGLAEMAGQRNKLCVSALAMDSFAEGVGAVYGMFDGDRNEELPRLLQCTMADVLLEEVQQSTNDTVFMANTFLVSHRKLGMAGQKLGSSALLCYIRPDTADPASSFSLTVANVGTCQAVLCRGGKPVPLSKVFSLEQDPEEAQRVKDQKAIITEDNKVNGVTCCTRMLGCTYLYPWILPKPHISSTPLTIQDELLILGNKALWEHLSYTEAVNAVRHVQDPLAAAKKLCTLAQSYGCQDNVGAMVVYLNIGEEGCTCEMNGLTLPGPVGFASTTTIKDAPKPATPSSSSGIASEFSSEMSTSEVSSEVGSTASDEHNAGGLDTALLPRPERRCSLHPTPTSGLFQRQPSSATFSSNQSDNGLDSDDDQPVEGVITNGSKVEVEVDIHCCRGRDLENSPPLIESSPTLCSEEHARGSCFGIRRQNSVNSGMLLPMSKDRMELQKSPSTSCLYGKKLSNGSIVPLEDSLNLIEVATEVPKRKTGYFAAPTQMEPEDQFVVPHDLEEEVKEQMKQHQDSRLEPEPHEEDRTEPPEEFDTAL
Consider B1, for which the binding entry is on record as “binds”.
